Test results reported in US11491100B2, “Dermal composition comprising chelator and base” (Primal Therapies, Inc., priority 2013, dated 2022).
At least one compound was matched to its structure with a doubt left.

Test: Ranking of candidate chelator and base agents by potency score
Parameters: key: 1 = most desired, 3 = least desired
Description: Methods of selecting base and chelator compositions depend on use. Compositions may be determined by ranking base, chelator and enhancer agents, from most desired to least desired, for multiple parameters such as safety, solubility, compatibility, pH, potency, taste, consistency, smell and others.
Non-toxic chelator and base compositions may be ranked according to the desired parameters of potency and approved-for-oral-consumption. A desired parameter such as potency for a candidate chelator or base may be given a score of “1” for most desired and a score of “3” for least desired. In one embodiment, candidate chelators, bases and enhancers may be ranked by FDA approval for oral consumption. […]
Microbes were cultured in growth media and plated at 10^3 CFU/well in a 96 well microtiter plate and cultured for 24 h. […] Wells were washed 4× in PBS and the amount of retained stain was measured. […] Synergistic effects were evaluated and numerous compounds were examined for their ability to synergistically act with chelators to inhibit biofilm formation (examples of some test compounds analyzed for synergy with chelators are presented in Table 2).
Screens of base components to use in compositions comprising chelator were performed. Briefly, the pH of S. mutans cultures were measured 24 and 48 hr post administration of chelator and candidate base components. […]

In the case of `C/C=C1/[C@H](O[C@@H]2O[C@H](CO)[C@@H](O)[C@H](O)[C@H]2O)OC=C(C(=O)OC)[C@H]1CC(=O)OCCc1ccc(O)c(O)c1` [Oleuropein], the “POTENCY (score 1-3)” value (chelators that may be used in combination with base agents) is reported as 2.

For `COc1ccc2[nH]c([S+]([O-])Cc3ncc(C)c(OC)c3C)nc2c1` (centres unmarked) [Omeprazole, reference compound], the “POTENCY (score 1-3)” value (base agents that may be used in combination with chelators) was 1.
